# According to PubChem BioAssay AID504834 (National Center for Advancing Translational Sciences (NCATS), 2011):
# Where “and” joins values, the source holds several entries; their conditions need not be identical. Identical values can stand only once. Out of some 320,000 compounds screened, about 22,000 (6.9%) were called active. Inconclusive results, whose numbers are uncertain, are shown with a selection of clear calls. The call rests on the fitted dose curve; in most records, active means well fitted inhibition curve with a large enough effect; inconclusive means small, poorly fitted or top-dose-only effect, or another doubt; inactive means no such curve, though single readings can be large or run the other way. Potencies of inconclusive entries are doubtful fits and often do not repeat.
# Test: Primary qHTS for delayed death inhibitors of the malarial parasite plastid, 96 hour incubation
# Settings: P. falciparum luciferase reporter growth; series mostly up to 28.7 µM
# Summary of the method: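 Luminescence readout: decreased luciferase signal marks inhibited growth of reporter-expressing P. falciparum in infected red cells (2% hematocrit, 0.05% parasitemia final), exposed to compound two generations (96 h, 37 C, 5% CO2).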
# Potency means the concentration at half of the fitted maximal effect.
row,Structure (SMILES),Potency
1,CCOC(=O)c1cc(-c2c(Cl)cccc2Cl)no1,inactive
2,COCCOC(=O)c1c(NC(=O)CSc2cccc[n+]2[O-])sc(C(N)=O)c1C,"inconclusive: 9.28 µM [inhibitor, partial curve]"
3,NS(=O)(=O)c1ccc(NC(=O)CN2CCCN(S(=O)(=O)c3ccc(F)cc3)CC2)cc1,"inconclusive: 4.15 µM [inhibitor, full curve, poor fit]"
4,O=C1c2ccccc2C2NC(=O)C3(CCCCC3)N12 (stereo not drawn),"inconclusive: 11.7 µM [inhibitor, single point]"
5,O=C(O)c1cccnc1SCCc1ccccc1,"inconclusive: 10.4 µM [inhibitor, partial curve]"
6,c1ccc(CC2=NCCN2)cc1,"inactive and inconclusive: 4.55 µM [inhibitor, partial curve, poor fit]"
7,CC(C)CC(COCc1cccc(Cl)c1)N1CCN(C(=O)c2cccc(C(F)(F)F)c2)CCC1=O (stereo not drawn),active: 10.4 µM
8,COc1ccc(-c2nnc(SCC(=O)Nc3ccccc3OC)o2)cc1,"inconclusive: 8.28 µM [inhibitor, partial curve]"
9,COc1ccc(-c2cnc(NCc3cc4c(cc3[N+](=O)[O-])OCO4)n2C)cc1,"inconclusive: 0.0093 µM [inhibitor, full curve, poor fit]"
10,CCC(C)(C)NC(=O)c1ccc2c(c1)N(CC(=O)NC1CCCC1)C(=O)C(C)(C)O2,active: 6.57 µM
11,O=C(CCS(=O)(=O)c1cccs1)NC1CCCCCC1,"inconclusive: 0.0029 µM [inhibitor, full curve, poor fit]"
12,COc1ccc(C)cc1NC(=O)c1ccc2c(=O)n3c(nc2c1)CCCCC3,"inconclusive: 0.738 µM [inhibitor, full curve, poor fit]"
13,CC1CCC(NC(=O)CCS(=O)(=O)c2ccc3c(c2)CC(C)N3C(=O)C2CC2)CC1 (stereo not drawn),inactive
14,O=C(NCCCN1CCOCC1)/C(=C/c1cccnc1)NC(=O)c1ccccc1,"inconclusive: 18.5 µM [inhibitor, single point]"
15,CS(=O)(=O)Nc1nc2n(n1)C(c1ccccc1)CC(c1ccccc1)N2 (stereo not drawn),inactive
16,Cc1ccc(C(=O)Nc2ccc(N3CCOCC3)cc2N2CCOCC2)cc1,"inconclusive: 11.7 µM [inhibitor, single point]"
17,CS(=O)(=O)C1=C(O)C(=O)N(c2ccccc2)C1c1ccccc1 (stereo not drawn),"inconclusive: 16.5 µM [inhibitor, partial curve, poor fit]"
18,CC(=O)Nc1nc(-c2ccc3c(c2)CC(C)N3C(=O)C2CC2)c(C)s1 (stereo not drawn),inactive
